40 compounds from the supplement of paper PMC7024190 can be followed below.

Counter-ions that a name gives are not always drawn. This is one part of the list. Repeats in this data set agree poorly, so a single value says little.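 A first-round screen of about ten thousand compounds sought those raising reporter output, using human embryonic kidney cells briefly transfected with a plasmid carrying a Renilla luciferase gene driven by the HSV-TK promoter.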

For the first test, the system named is HEK 293FT. The experiment in a line: log relative Renilla luciferase luminescence (reporter expression vs reference, reference not stated) (log (base not stated)); higher = higher recombinant reporter expression. As to conditions: 10 µM; time after transfection 48 h. As to the method:
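HEK 293FT cells transiently transfected with pRL-TK (Renilla luciferase) were treated with compounds at 10 uM and luminescence was read about 42 h later. Values are log relative Renilla luminescence (log base and reference not stated). Single-pass screen; ICCB Known Bioactives library.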
As to `N#C/C(=C\c1ccc(O)c(O)c1)C(=O)NCc1ccccc1`, the log was -0.391.
Still for that read-out and setting: as for `O=C1C(SCCO)=C(SCCO)C(=O)c2ccccc21`, the figure is -1.29; as for `CN(CCc1ccc(Cl)c(Cl)c1)CC(O)COc1ccc(NS(C)(=O)=O)cc1` (stereo not given), -0.126.
On the same count and under the same terms, the value for `CCCOc1ccccc1-c1nc2[nH]nnc2c(=O)[nH]1` [Zaprinast] was -0.067; that for `CC(/C=C/c1cccc(Oc2ccc(F)cc2)c1)N(O)C(N)=O` (stereo not given) was -0.0741; that for `CC1(COc2ccc(CC3SC(=O)NC3=O)cc2)CCCCC1` (stereo not given) [Ciglitazone] was 0.173.
As for `NC(=O)c1ccc(-c2nc(-c3ccccn3)c(-c3ccc4c(c3)OCO4)[nH]2)cc1`, the log was -0.722.
`O=c1cc(N2CCOCC2)oc2c(-c3ccccc3)cccc12`: the log was -0.272.
Consider `N#CC(=C(/N)Sc1ccccc1N)/C(C#N)=C(/N)Sc1ccccc1N`, for which the log amounted to 0.0907.
Same read-out and setting: the value for `CC(=Cc1ccc(C(=O)O)cc1)c1ccc2c(c1)C(C)(C)CCC2(C)C` was -0.0503.
The same measure, in the same setting: the value for `COc1ccc(C2CNC(=O)C2)cc1OC1CCCC1` (stereo not given) [Rolipram] was -0.308; that for `C[C@@H]1C[C@H]2[C@@H]3CCC4=CC(=O)C=C[C@]4(C)[C@@]3(F)[C@@H](O)C[C@]2(C)[C@@]1(O)C(=O)CO` [Dexamethasone] was 0.226; that for `C=C[C@@]1(C)CC(=O)[C@]2(O)[C@@]3(C)[C@@H](O)CCC(C)(C)[C@@H]3[C@H](O)[C@H](OC(C)=O)[C@@]2(C)O1` [Forskolin] was 0.282.
On the same count and under the same terms, the value for `Clc1cccc(Nc2nnc(-c3ccccc3)c3ccccc23)c1` was -0.428.
With `CNC(=O)[C@H]1O[C@@H](n2cnc3c(NCc4cccc(I)c4)ncnc32)[C@H](O)[C@@H]1O`, the log was -0.251.

In another test the test system is HEK 293FT. The test is described as above. The conditions noted are these: 10 µM; time after transfection 48 h. This is another data set of the same source.
As to `CC(C)=CCn1cnc2ncnc(N)c21` [Triacanthine], the log was -0.181.
Regarding `COc1ccc(C2C(=O)c3ccccc3C2=O)cc1` [Anisindione], the log was 0.0306.
On the same count and under the same terms, the value for `CN1CCN(c2cc3c(cc2F)c(=O)c(C(=O)O)cn3-c2ccc(F)cc2)CC1` [Difloxacin hydrochloride] was -0.371; that for `O=C(O)CCCNC(=O)c1ccncc1` [Isonicotinoyl Gaba] was 0.224; that for `Cc1cc(=O)oc2cc(O)ccc12` [Hymecromone] was 0.139.
With `CCn1cnc(C(=O)NC)c1C(=O)NC` [Ethylnorantifeine], the log was -1.05.
On to `CC(C)(S)[C@@H](N)C(=O)O` [D-Penicillamine], for which the log was 0.025.
Still for that read-out and setting: as for `Cc1noc(NS(=O)(=O)c2ccc(N)cc2)c1C` [Sulfafurazole], the figure is -2.38.
Same read-out and setting: as for `O=C(O)c1ccc(NC2OC[C@@H](O)[C@H](O)[C@H]2O)cc1` (stereo not given in full) [Benaxibine], the figure is 0.00898; as for `CC(C)(C)NC[C@H](O)c1ccc(O)c(CO)c1` [Levalbuterol Hydrochloride], -0.236; as for `Cc1cc(NC(=O)C2=C(O)c3ccccc3S(=O)(=O)N2C)no1` [Isoxicam], -0.191.
Take `Cc1cc(C)nc(NS(=O)(=O)c2ccc(N)cc2)n1` [Sulfadimidine]: the log was found to be 0.191.
`CCOC(=O)CCc1nc2ccccc2[nH]1` [Procodazole-ethyl-ester]: the log was -0.198.
On the same count and under the same terms, as for `c1ccc(Cc2nc3ccccc3[nH]2)cc1` [Bendazol], the figure is 0.1.
Still for that read-out and setting: the value for `CCN(CC)CCOc1ccc(/C(=C(/Cl)c2ccccc2)c2ccccc2)cc1` [Enclomifene] was 0.161; that for `C#CCOc1ccc2c(C)cc(=O)oc2c1` [Giparmen] was 0.0942.
In the case of `c1ccc2[nH]c(-c3cscn3)nc2c1` [Tiabendazole], the log turned out to be 0.0555.
For the compound `NC(N)=NC(N)=Nc1cccc(Cl)c1` [m-Chlorophenylbiguanide], the log is -0.0464.
On the same count and under the same terms, the value for `O=C(O)COc1cc(OCC(=O)O)c2c(=O)cc(-c3ccccc3)oc2c1` [Flavodic acid] was 0.0345; that for `OC(C#CCN1CCCC1)(c1ccccc1)c1ccccc1` [Butinoline] was -0.204.
The same measure, in the same setting: as for `O=C(CC(=O)Nc1ccc(C(=O)O)cc1)Nc1ccc(C(=O)O)cc1` [Malaben], the figure is 0.0165.
For the compound `CCN(CC)CCSC(=O)C(c1ccccc1)c1ccccc1` [Tifenamil], the log was 0.193.
Still for that read-out and setting: as for `C[C@]12C=CC(=O)C=C1CC[C@@H]1[C@@H]2[C@@H](O)C[C@@]2(C)[C@H]1CC[C@]2(O)C(=O)COC(=O)CCC(=O)O` [Prednisolone hemisuccinate], the figure is -0.328; as for `CCOC(=O)c1cnc2cc(OCC(C)C)c(OCC(C)C)cc2c1O` [Buquinolate], -0.241; as for `CCC(=O)OCC(=O)[C@@]1(O)CC[C@H]2[C@@H]3CCC4=CC(=O)CC[C@]4(C)[C@H]3[C@@H](O)C[C@@]21C` [Hydrocortisone propionate], 0.107.

Another test concerns HEK 293FT. The test is described as above. The conditions noted are these: 10 µM; time after transfection 48 h. The source holds these as a separate data set.
Turning to `N#C/C(=C\c1ccc(O)c(O)c1)C(=O)NCc1ccccc1`, the log was found to be 0.0747.
Same read-out and setting: as for `O=C1C(SCCO)=C(SCCO)C(=O)c2ccccc21`, the figure is -0.614; as for `CN(CCc1ccc(Cl)c(Cl)c1)CC(O)COc1ccc(NS(C)(=O)=O)cc1` (stereo not given), -0.135.
In the case of `CCCOc1ccccc1-c1nc2[nH]nnc2c(=O)[nH]1` [Zaprinast], the log came to 0.0032.
For `CC(/C=C/c1cccc(Oc2ccc(F)cc2)c1)N(O)C(N)=O` (stereo not given), the log is -0.119.
`CC1(COc2ccc(CC3SC(=O)NC3=O)cc2)CCCCC1` (stereo not given) [Ciglitazone]: the log was -0.315.
Still for that read-out and setting: as for `NC(=O)c1ccc(-c2nc(-c3ccccn3)c(-c3ccc4c(c3)OCO4)[nH]2)cc1`, the figure is 0.225.
The same measure, in the same setting: as for `O=c1cc(N2CCOCC2)oc2c(-c3ccccc3)cccc12`, the figure is 0.1.
Still for that read-out and setting: as for `N#CC(=C(/N)Sc1ccccc1N)/C(C#N)=C(/N)Sc1ccccc1N`, the figure is 0.0525; as for `CC(=Cc1ccc(C(=O)O)cc1)c1ccc2c(c1)C(C)(C)CCC2(C)C`, -0.0524.
As to `COc1ccc(C2CNC(=O)C2)cc1OC1CCCC1` (stereo not given) [Rolipram], the log worked out at 0.0515.
Still for that read-out and setting: as for `C[C@@H]1C[C@H]2[C@@H]3CCC4=CC(=O)C=C[C@]4(C)[C@@]3(F)[C@@H](O)C[C@]2(C)[C@@]1(O)C(=O)CO` [Dexamethasone], the figure is 0.0915.
Same read-out and setting: as for `C=C[C@@]1(C)CC(=O)[C@]2(O)[C@@]3(C)[C@@H](O)CCC(C)(C)[C@@H]3[C@H](O)[C@H](OC(C)=O)[C@@]2(C)O1` [Forskolin], the figure is -0.0153.
Same read-out and setting: the value for `Clc1cccc(Nc2nnc(-c3ccccc3)c3ccccc23)c1` was 0.0958; that for `CNC(=O)[C@H]1O[C@@H](n2cnc3c(NCc4cccc(I)c4)ncnc32)[C@H](O)[C@@H]1O` was 0.457.
